Measured values taken from doi:10.1101/2022.12.08.519563.
Like-named read-outs stand apart in the source and are kept apart here. No constants are given. Whether binding was seen depends on the method and setting. In cells and extracts the contact can be indirect. These calls come from enrichment with a bait or labelling near it, and not all partners need be listed. Where a sequence is shown, tags or fusion partners need not be part of it. Each block holds one molecule with its values, some of them ahead of it.

Sequences of proteins named here, by UniProt entry; tags and fusion partners are left off.
UniProt O95817: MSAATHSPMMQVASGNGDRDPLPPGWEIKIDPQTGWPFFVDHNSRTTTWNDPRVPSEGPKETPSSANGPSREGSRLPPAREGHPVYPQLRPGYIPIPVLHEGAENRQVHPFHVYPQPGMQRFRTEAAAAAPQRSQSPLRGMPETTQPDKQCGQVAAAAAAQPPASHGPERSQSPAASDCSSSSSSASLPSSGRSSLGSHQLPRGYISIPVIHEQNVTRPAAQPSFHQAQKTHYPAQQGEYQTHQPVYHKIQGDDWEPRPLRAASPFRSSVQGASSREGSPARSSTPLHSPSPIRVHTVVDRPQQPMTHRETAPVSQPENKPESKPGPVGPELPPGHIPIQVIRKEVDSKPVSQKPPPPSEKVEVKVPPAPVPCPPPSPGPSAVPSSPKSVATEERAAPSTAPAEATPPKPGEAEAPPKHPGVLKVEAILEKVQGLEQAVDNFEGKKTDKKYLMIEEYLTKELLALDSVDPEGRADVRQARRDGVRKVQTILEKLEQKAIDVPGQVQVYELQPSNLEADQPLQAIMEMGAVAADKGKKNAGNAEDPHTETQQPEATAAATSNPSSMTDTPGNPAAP
UniProt Q99871: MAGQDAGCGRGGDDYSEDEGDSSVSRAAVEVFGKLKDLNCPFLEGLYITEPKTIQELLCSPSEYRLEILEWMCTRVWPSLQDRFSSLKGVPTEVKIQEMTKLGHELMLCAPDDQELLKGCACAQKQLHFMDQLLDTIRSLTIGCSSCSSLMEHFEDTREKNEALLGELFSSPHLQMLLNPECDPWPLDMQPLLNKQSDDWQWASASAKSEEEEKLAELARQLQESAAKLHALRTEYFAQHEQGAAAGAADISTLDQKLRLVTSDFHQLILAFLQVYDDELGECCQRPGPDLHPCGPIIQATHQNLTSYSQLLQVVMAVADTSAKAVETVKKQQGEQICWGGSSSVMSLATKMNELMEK
UniProt Q9NT62: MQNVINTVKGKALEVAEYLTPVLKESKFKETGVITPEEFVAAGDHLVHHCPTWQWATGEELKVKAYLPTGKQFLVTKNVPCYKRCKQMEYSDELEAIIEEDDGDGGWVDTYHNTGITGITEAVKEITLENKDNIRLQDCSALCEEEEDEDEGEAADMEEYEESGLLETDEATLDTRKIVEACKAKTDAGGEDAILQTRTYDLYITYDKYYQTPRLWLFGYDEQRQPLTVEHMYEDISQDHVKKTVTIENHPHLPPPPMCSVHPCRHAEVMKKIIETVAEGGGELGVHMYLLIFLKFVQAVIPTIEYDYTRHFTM
UniProt P47929: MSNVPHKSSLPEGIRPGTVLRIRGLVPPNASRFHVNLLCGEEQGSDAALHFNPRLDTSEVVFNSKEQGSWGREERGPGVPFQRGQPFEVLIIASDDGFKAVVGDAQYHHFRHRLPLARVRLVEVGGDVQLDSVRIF

Columns and labels:
Assay in all cases: proximity labelling
[1] = target: T1, APEX-tagged HspB2 (human) (UniProt Q16082)
T1 sequence: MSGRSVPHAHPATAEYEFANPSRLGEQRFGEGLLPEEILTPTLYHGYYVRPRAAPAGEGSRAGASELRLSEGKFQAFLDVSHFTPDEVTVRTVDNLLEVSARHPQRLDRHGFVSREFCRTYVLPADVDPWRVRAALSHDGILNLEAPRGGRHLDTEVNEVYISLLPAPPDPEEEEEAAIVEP

[2] = target: T2, APEX-tagged HspB5-STD/RG (human) (UniProt P02511)
T2 sequence: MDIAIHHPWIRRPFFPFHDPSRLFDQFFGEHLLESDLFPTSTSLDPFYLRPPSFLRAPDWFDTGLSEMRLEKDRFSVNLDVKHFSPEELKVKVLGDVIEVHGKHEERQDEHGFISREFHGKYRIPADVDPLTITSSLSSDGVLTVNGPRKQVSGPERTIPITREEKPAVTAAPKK

[3] = target: T1, APEX-tagged HspB2 (human); remark: listed apart in the source
[4] = target: T1, APEX-tagged HspB2 (human); remark: listed apart in the source
[5] = target: T1, APEX-tagged HspB2 (human); remark: listed apart in the source

Molecule: BAG3 (from UniProt O95817 1-575)
- binding [2]: binds
- binding [1]: binds
- binding [3]: binds

Molecule: HAUS7 (from UniProt Q99871 1-358)
- binding [4]: binds
- binding [1]: binds

Molecule: SQSTM1 (from UniProt Q13501 1-440)
- binding [2]: binds
- binding [1]: binds

B2: HspB3 (protein, UniProt Q12988 1-150)
chain: MAKIILRHLIEIPVRYQEEFEARGLEDCRLDHALYALPGPTIVDLRKTRAAQSPPVDSAAETPPREGKSHFQILLDVVQFLPEDIIIQTFEGWLLIKAQHGTRMDEHGFISRSFTRQYKLPDGVEIKDLSAVLCHDGILVVEVKDPVGTK
- binding [5]: binds

Further lines, results first:

- binding [1]: binds
Molecule: ATG3 (from UniProt Q9NT62 1-314)

- binding [1]: binds
Molecule: LGALS7 (from UniProt P47929 1-136)

- binding [5]: binds
B1: MEA1 (protein, UniProt Q16626 1-185)
chain: MGPERHLSGAPARMATVVLGGDTMGPERIFPNQTEELGHQGPSEGTGDWSSEEPEEEQEETGSGPAGYSYQPLNQDPEQEEVELAPVGDGDVVADIQDRIQALGLHLPDPPLESEDEDEEGATALNNHSSIPMDPEHVELVKRTMAGVSLPAPGVPAWAREISDAQWEDVVQKALQARQASPAWK
